Results on two molecules are retold here after paper PMC2680759, “Non-Invasive Molecular Imaging of Fibrosis Using a Collagen-Targeted Peptidomimetic of the Platelet Collagen Receptor Glycoprotein VI” (PLoS ONE, 2009).

Amino acid sequences for entries named in this document (tags omitted). A change or cut given only in a name is not applied to a line headed by its entry. Residues count along the entry.
UniProt P02452: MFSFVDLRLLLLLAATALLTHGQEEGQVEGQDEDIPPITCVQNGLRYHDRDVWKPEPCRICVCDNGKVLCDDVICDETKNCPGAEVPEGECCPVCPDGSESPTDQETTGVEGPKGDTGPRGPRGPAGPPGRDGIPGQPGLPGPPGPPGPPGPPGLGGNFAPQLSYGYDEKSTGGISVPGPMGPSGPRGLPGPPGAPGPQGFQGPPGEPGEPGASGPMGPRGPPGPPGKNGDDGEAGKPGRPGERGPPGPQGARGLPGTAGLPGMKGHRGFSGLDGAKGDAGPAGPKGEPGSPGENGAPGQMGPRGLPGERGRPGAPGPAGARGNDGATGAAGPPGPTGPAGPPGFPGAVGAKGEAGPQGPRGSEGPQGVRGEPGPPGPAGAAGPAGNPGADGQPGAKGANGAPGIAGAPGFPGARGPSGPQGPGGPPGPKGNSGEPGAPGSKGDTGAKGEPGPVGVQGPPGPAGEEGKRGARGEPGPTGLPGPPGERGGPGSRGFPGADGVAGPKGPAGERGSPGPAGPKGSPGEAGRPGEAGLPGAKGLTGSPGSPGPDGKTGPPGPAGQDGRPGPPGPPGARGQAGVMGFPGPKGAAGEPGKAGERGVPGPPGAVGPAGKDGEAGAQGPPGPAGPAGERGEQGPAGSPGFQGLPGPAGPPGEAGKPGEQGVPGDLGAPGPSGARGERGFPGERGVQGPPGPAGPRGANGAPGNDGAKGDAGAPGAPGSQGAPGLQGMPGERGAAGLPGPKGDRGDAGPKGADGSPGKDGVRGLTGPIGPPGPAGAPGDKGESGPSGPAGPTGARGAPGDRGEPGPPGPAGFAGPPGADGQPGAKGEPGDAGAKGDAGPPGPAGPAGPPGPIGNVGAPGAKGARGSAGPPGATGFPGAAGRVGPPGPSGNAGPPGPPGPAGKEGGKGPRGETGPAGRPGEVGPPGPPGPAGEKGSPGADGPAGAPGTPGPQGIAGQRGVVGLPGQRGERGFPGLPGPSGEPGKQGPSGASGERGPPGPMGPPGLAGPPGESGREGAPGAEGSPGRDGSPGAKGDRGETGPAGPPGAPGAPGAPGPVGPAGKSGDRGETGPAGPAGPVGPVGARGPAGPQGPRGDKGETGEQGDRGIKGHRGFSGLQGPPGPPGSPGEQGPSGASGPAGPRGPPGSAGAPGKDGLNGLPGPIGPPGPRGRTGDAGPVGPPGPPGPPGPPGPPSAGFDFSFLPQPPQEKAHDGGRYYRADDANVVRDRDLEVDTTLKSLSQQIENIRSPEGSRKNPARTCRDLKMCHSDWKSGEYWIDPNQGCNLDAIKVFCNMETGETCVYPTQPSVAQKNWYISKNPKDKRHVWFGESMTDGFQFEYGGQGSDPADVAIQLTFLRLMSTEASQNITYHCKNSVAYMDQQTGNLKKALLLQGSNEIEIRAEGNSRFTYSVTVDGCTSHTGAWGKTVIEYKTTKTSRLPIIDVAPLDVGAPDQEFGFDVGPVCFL
UniProt P02461, residues 154-1221: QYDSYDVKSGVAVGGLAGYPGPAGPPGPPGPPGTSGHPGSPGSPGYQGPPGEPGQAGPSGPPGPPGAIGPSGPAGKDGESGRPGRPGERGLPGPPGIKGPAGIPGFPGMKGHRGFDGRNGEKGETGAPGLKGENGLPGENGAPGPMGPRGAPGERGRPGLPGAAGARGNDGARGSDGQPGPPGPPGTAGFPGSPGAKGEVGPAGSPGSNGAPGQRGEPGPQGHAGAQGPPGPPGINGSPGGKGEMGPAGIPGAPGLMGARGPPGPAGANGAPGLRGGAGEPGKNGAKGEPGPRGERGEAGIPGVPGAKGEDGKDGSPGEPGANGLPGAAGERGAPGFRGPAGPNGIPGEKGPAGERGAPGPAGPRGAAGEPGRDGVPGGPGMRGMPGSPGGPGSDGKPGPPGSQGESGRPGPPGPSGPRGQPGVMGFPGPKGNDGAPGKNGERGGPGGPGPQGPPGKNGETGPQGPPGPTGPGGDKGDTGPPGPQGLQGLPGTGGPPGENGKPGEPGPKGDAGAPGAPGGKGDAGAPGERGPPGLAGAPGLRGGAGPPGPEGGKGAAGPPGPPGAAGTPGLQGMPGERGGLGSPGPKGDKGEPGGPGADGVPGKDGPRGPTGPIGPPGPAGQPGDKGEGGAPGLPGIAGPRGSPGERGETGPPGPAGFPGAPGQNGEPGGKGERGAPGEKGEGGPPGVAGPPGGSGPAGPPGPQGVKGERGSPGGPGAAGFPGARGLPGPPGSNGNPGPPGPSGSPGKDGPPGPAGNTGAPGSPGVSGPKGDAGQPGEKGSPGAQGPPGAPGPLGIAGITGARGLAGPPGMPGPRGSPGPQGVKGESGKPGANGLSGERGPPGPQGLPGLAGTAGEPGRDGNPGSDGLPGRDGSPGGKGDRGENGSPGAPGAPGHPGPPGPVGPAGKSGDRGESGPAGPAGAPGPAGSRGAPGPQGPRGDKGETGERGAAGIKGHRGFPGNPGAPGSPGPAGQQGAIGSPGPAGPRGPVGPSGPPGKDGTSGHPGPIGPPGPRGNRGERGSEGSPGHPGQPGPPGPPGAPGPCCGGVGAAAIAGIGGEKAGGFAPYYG
UniProt Q9HCN6, residues 21-267: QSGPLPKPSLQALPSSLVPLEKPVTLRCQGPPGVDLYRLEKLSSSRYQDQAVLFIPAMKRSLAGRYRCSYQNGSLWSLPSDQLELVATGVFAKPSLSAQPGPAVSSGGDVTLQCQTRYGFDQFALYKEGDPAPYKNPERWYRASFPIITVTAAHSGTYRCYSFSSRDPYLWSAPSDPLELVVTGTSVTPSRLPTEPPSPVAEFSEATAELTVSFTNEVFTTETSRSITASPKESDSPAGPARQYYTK

Assay [1] deals with fibrillar type I collagen (UniProt P02452). Briefly: ELISA; solid-phase assay: biotin-peptides (50 µg.mL^−1) on microtitration wells coated with 1 µg of protein, detected with HRP-coupled extravidin; in competition collagelin was mixed with GPVI-Fc, 9O12.2 IgG or 3J24.2 IgG (50 µg.mL^−1 each) before addition to collagen-coated wells; both purified.
For assay [2] the target is unchanged. The description is as above. The source holds these as a separate data set.
Another assay has as its target type III collagen (UniProt P02461). The assay is described as above.
Assay [3] deals with fibrillar type I collagen (UniProt P02452). The assay is described as follows: SPR; fibrillar type I collagen immobilised on a CM5 sensorchip, biotin-peptides (125, 250, 500 and 1000 µg.mL^−1) perfused; Biacore 2000; both purified. On the technique in general: SPR reads the build-up and loss of mass on a sensor chip optically.

Results are given in words; binding and its absence hold for the method and conditions named. Some binding calls cover weakened binding; strength is not graded here.

Consider “soluble recombinant GPVI-Fc (from UniProt Q9HCN6 21-267) (Fc fusion)”, for which the binding entry in assay [1] is on record as “binds”.

SGSGCGPQGARGLTGASAGGPC (biotinylated at the N-terminus; cyclic) [cyclic control peptide Pc, biotinylated (B-Pc)]: the binding entry in assay [2] was “no binding (tested: 50 µg.mL^−1)”; in the assay with type III collagen it was “no binding (tested: 50 µg.mL^−1)”; in assay [3], “no binding (tested: 125, 250, 500 and 1000 µg.mL^−1)”.
